Results: publication PMC6615493, “The Role of Iron and Copper on the Oligomerization Dynamics of DR_2577, the Main S-Layer Protein of Deinococcus radiodurans” (Frontiers in Microbiology, 2019)
Results are given in words; binding and its absence hold for the method and conditions named. Some binding calls cover weakened binding; strength is not graded here.

Molecular target: DR_2577, the main S-layer protein of Deinococcus radiodurans (Deinococcus radiodurans (endogenous in strain R1, ATCC 13939)) (UniProt Q9RRB6)
Assay: SDS-PAGE of unboiled samples; 7% polyacrylamide/urea gel, SDS and β-mercaptoethanol, samples not boiled; 10 µl protein at 0.2 mg/ml incubated 10 min at 25°C; neutral and subacid pH (7.0, 6.0), with or without EDTA, Cu2+, Ca2+; both purified

B1: DR_2577, the main S-layer protein of Deinococcus radiodurans (natural protein, UniProt Q9RRB6 23-1167, looked up)
chain: APVSAPQVPALTDVPAGHWAKDAIDRLVSRGVILGYPDGTFRGTQNLTRYEAAIIIARLLDQMRDGETPAGMTAEDMTALQNAIQELAADLAALGVRVSDLEANAVSKDDFARLEARIEEVAAAGGEQGATEALQGQIDDLTARVDEYDALRADVDDNASSIAALNDLTVLLNQDILDLQDRVSAVEAAQADFVQRSDFDALGGRVTTVETRVETVNNSLTGRIAALERNAFSVKPSLTIGYSVSRTSRNFDVDRLFPLNADGTVANNAFTSGGIDTDTGAQRRDFGDFGNASDPVVAGAAGLYGFADGVSYTVYFTDGSTATFDGLNPADYKVPTGKVIDTTKGRNGFGFNNLARYKEGSTDIGISLGFDTSGQFSQVTSGTGGSLFSTAGRLQVNQIDLNFGLVTGLPSDAYVDTNGNGKKDDGEATGRGTYLGSGGTAAILRDPAGNVYRPVFFRFKNATTQFSVGNNPVIVTLGQQQKFYFSDYVFDNNYDGRGDGFTVTVDGSNVPVIGAWKPQIKGVYGSRSGLDGTAEAGYGVYYRGVRAQITPVGTLTAGIHYAQEGRDMFGAAQNTTSTPSDVTTYGADLHGKAFGVELHSEYATSRVRPNTANAAVQTSNAFYARVATRKDNLAFDLNTPAAKFGNDTFGVSLYDLNYRKIDAGYNNVAGISEYGYGSYSRTSAQNIAYNPDTGVTAPFANLDRQAYTDANNDGTSDRNADGTVVATNTKIGQMGFGVKAAANLGPVAIGGYYDTSTGANGDNANRMTEAGGSAKVAYSIFSLRGTYNTLDSNRPQIYRDAAGTQIIGDAKVRRYAVQADVTPGLGLFVGAYYRDVNVNGVRSTTDRGLLGRGYLASSFEPGVGNNAYRTGLRCADNNFGTGTRDIDGVGGVLNPAVNLDQSRTATCFTSYGVEAGHAGDNANALVKDLFFRVGYSRVYVPTTATATTGDFSGSVTYGDARYDRKVGVANVRLAGSFSTTNTQLDSRPAGTRGAVGLIVRTDPLENVPFRPQFNGQVGYYTADNRVAAGNYNANATKYGAGVVLNDFLLPQTKIGVRYDGYMAQNRQYTPFDGDGTQGYFSDANNNRRTNLNGVYVEGAYQDLIFSYGTYTLSQKDLNGVEYGSGINNGQPARGQTFKISYKVNF
notes: DR_2577 (SlpA), main S-layer protein of Deinococcus radiodurans strain R1; The introduction describes it as a homo-hexamer of ~760 kDa (trimer of dimers); the dimers are said (cited work) to be held by intermolecular disulfide bonds; also called SlpA
With B1 as the binder, how does the binding read?
Its binding is “binds”.
